Laboratory results from PMC10707054.

Chains of the proteins cited; added tags and fusions are not shown.
UniProt Q01082: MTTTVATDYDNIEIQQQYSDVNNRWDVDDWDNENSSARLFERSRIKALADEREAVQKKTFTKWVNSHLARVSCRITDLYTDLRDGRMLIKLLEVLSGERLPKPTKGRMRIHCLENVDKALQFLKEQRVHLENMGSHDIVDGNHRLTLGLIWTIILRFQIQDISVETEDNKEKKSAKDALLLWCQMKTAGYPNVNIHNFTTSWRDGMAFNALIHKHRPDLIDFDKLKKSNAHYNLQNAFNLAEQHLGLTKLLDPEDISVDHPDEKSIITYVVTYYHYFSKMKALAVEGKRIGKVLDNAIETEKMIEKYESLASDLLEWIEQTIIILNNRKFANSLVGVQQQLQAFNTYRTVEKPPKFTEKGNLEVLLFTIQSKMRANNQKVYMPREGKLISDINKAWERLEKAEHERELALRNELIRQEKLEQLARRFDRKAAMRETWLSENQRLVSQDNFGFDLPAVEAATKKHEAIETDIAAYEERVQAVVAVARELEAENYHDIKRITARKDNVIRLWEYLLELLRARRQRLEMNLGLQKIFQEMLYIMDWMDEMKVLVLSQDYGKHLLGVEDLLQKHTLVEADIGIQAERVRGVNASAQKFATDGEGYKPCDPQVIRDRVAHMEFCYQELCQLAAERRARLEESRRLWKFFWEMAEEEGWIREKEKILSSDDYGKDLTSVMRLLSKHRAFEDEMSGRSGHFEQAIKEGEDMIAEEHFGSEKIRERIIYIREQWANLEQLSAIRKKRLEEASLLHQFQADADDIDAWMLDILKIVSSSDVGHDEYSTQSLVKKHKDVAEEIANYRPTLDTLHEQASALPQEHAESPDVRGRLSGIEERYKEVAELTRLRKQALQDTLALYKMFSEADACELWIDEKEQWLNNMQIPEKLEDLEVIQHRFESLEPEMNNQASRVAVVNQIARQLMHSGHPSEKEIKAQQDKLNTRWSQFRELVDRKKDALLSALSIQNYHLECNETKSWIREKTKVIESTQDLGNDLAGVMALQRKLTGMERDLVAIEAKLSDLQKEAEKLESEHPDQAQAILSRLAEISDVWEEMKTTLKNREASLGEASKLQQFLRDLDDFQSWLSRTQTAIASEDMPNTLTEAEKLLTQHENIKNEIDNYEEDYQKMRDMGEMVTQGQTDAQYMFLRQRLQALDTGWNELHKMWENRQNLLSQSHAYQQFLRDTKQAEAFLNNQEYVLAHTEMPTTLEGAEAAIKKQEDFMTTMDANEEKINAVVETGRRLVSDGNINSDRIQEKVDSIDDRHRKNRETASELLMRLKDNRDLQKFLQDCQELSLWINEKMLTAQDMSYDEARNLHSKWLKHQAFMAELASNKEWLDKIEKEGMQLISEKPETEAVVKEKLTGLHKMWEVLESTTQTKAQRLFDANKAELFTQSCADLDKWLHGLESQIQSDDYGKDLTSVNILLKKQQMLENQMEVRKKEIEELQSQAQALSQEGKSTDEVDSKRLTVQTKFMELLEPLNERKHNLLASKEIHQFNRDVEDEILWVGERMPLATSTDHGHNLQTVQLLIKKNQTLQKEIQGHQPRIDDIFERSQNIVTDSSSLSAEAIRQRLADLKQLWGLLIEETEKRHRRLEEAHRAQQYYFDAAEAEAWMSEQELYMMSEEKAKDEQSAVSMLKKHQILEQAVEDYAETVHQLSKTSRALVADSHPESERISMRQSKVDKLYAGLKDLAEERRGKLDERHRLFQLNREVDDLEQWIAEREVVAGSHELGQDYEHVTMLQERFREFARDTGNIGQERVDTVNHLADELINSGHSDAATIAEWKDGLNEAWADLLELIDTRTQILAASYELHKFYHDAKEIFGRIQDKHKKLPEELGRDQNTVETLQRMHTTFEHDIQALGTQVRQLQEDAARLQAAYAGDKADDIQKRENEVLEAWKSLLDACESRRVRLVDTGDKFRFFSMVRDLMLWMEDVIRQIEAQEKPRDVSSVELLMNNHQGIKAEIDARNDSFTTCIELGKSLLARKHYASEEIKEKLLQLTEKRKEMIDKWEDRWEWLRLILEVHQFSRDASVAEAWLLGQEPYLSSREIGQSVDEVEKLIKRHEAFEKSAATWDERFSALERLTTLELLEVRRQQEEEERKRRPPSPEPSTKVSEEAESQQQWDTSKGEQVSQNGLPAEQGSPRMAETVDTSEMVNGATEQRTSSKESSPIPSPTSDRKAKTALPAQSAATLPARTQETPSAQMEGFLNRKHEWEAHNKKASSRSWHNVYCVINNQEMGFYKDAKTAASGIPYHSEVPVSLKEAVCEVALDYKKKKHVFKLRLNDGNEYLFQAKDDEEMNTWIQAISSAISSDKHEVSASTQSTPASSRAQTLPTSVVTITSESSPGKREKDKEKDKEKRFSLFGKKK

Target: T1, Pituitary tumor-transforming gene 1 (PTTG1) (human (endogenous in JKT-1, SEM-1 and TCAM2)) (UniProt O95997)
T1 sequence: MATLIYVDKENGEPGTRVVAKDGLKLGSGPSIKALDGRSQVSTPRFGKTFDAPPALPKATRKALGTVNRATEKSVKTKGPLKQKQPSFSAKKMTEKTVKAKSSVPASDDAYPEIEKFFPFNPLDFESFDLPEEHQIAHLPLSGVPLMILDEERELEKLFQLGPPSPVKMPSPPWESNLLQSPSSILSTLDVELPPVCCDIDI
Assay: affinity purification with mass spectrometry; PTTG1 immunoprecipitated overnight at 4 °C from TCAM2 lysate with anti-PTTG1 antibody cross-linked to Tosyl-activated Dynabeads (lysis buffer Hepes 20 mM, NaCl 250 mM, EDTA 0.5 mM, Nonidet P-40 0.25%); SDS-PAGE, band at 250 kDa cut out, in-gel tryptic digestion, HPLC-ESI-MS/MS

Row | binding | Substance
1 | binds | Spectrin-αII-chain (SPTAN1) (from UniProt Q13813 1-2472)
2 | binds | Spectrin-βII-chain (SPTBN1) (from UniProt Q01082 1-2364)

No constants are given. Whether binding was seen depends on the method and setting. Binding seen in cells or lysates may run through a third protein. A yes stands for co-enrichment or nearness to the bait. Other partners may have been found.
